This is one part of the list. Many values rest on one well or one pass, so single values are uncertain.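 Cells were imaged in 1,536-well plates, and nuclei stained with an antibody against cleaved PARP were counted against all DNA-stained nuclei to give the apoptosis fraction. Screening doses were chosen to leave most cells alive, and resting and induced cleaved-PARP levels differ strongly between cell lines.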
system: COLO829; experiment: cleaved PARP positive nuclei fraction relative to DMSO control; melanoma cells; higher = more apoptosis; settings: library dose: low library concentration; 72 h

Compared with `CN1CCN(c2ccc3nc(-c4c(N)c5c(F)cccc5[nH]c4=O)[nH]c3c2)CC1` [Dovitinib] + COc1ccc(COc2ccc(Cc3cnc(N)nc3N)cc2OC)cc1 [GW2580] (first compound 0.1 µM, partner dose 1 µM), `Cn1c(=O)n(-c2ccc(C(C)(C)C#N)cc2)c2c3cc(-c4cnc5ccccc5c4)ccc3ncc21` + Cc1cc([N+](=O)[O-])ccc1NS(=O)(=O)c1cc(Cl)ccc1Cl [FH535] (first compound 0.004 µM, partner dose 1 µM) is lower in “cleaved PARP positive nuclei fraction” value: 117% for the first, 56.2% for the second.

First: CCCS(=O)(=O)Nc1ccc(F)c(C(=O)c2c[nH]c3ncc(Cl)cc23)c1F + Oc1nc(-c2ccc(C(F)(F)F)cc2)nc2c1CSCC2 [XAV939] (first compound 0.08 µM, partner dose 2 µM)
Second: CS(=O)(=O)CCNCc1ccc(-c2ccc3ncnc(Nc4ccc(OCc5cccc(F)c5)c(Cl)c4)c3c2)o1 [lapatinib] + O=C(Nc1ccccc1)c1cc([N+](=O)[O-])ccc1Cl [GW9662] (first compound 0.8 µM, partner dose 2 µM)
The “cleaved PARP positive nuclei fraction” value of the first is lower: 38.1% for the first, 114% for the second.

Compared with `Nc1nc(F)nc2c1ncn2[C@@H]1O[C@H](CO)[C@@H](O)[C@@H]1O` [fludarabine] + COc1ccc(-c2ccc3c(N4CCOCC4)nc(N4C[C@@H](C)O[C@@H](C)C4)nc3n2)cc1CO [KU0063794] (first compound 0.2 µM, partner dose 0.02 µM), `CNC(=O)c1cc(Oc2ccc(NC(=O)Nc3ccc(Cl)c(C(F)(F)F)c3)cc2)ccn1` [sorafenib] + CCN(CC)CCCCNc1ncc2cc(-c3cc(OC)cc(OC)c3)c(NC(=O)NC(C)(C)C)nc2n1 [PD173074] (first compound 0.4 µM, partner dose 0.1 µM) is lower in “cleaved PARP positive nuclei fraction” value: 126% for the first, 71.4% for the second.

Going from `C=C(c1ccc(C(=O)O)cc1)c1cc2c(cc1C)C(C)(C)CCC2(C)C` [Bexarotene] + CCc1ccc(CCOc2ccc(CC3SC(=O)NC3=O)cc2)nc1 [pioglitazone] (first compound 2 µM, partner dose 2 µM) to `CS(=O)(=O)CCNCc1ccc(-c2ccc3ncnc(Nc4ccc(OCc5cccc(F)c5)c(Cl)c4)c3c2)o1` [lapatinib] + COc1cc(N2CCC(N3CCN(C)CC3)CC2)ccc1Nc1ncc(Cl)c(Nc2ccccc2S(=O)(=O)C(C)C)n1 [NVP-TAE684] (first compound 0.8 µM, partner dose 0.08 µM), the “cleaved PARP positive nuclei fraction” value rises from 39.9% to 129%.

Compared with `C=C(c1ccc(C(=O)O)cc1)c1cc2c(cc1C)C(C)(C)CCC2(C)C` [Bexarotene] + c1cc(-c2cnn3cc(-c4ccc(OCCN5CCCCC5)cc4)cnc23)ccn1 [Dorsomorphin] (first compound 2 µM, partner dose 0.4 µM), `CO[C@H]1C[C@@H]2CC[C@@H](C)[C@@](O)(O2)C(=O)C(=O)N2CCCC[C@H]2C(=O)O[C@H]([C@H](C)C[C@@H]2CC[C@@H](OCCO)[C@H](OC)C2)CC(=O)[C@H](C)/C=C(\C)[C@@H](O)[C@@H](OC)C(=O)[C@H](C)C[C@H](C)/C=C/C=C/C=C/1C` [everolimus] + O=C1NC(=O)/C(=C/c2ccc(-c3ccc(F)cc3O)o2)S1 [AS252424] (first compound 0.02 µM, partner dose 1 µM) is higher in “cleaved PARP positive nuclei fraction” value: 69.3% for the first, 149% for the second.

system: G361; experiment: as above; settings: library dose: low library concentration; 72 h

Compared with `Nc1ccn([C@@H]2O[C@H](CO)[C@@H](O)C2(F)F)c(=O)n1` [gemcitabine] + O=S(=O)(c1ccccc1)N(CC(F)(F)F)c1ccc(C(O)(C(F)(F)F)C(F)(F)F)cc1 [T0901317] (first compound 0.0004 µM, partner dose 1.4 µM), `Nc1ncn([C@H]2C[C@H](O)[C@@H](CO)O2)c(=O)n1` [decitabine] + O=C(Nc1ccccc1)c1cc([N+](=O)[O-])ccc1Cl [GW9662] (first compound 0.1 µM, partner dose 2 µM) is lower in “cleaved PARP positive nuclei fraction” value: 263% for the first, 143% for the second.

First: Nc1nc(F)nc2c1ncn2[C@@H]1O[C@H](CO)[C@@H](O)[C@@H]1O [fludarabine] + Cn1cc(/C=C2\C(=O)Nc3cccnc32)c2ccccc21 [GW441756] (first compound 0.2 µM, partner dose 0.4 µM)
Second: Nc1ncn([C@H]2C[C@H](O)[C@@H](CO)O2)c(=O)n1 [decitabine] + Oc1cc(-c2nc(-c3ccccc3)[nH]c2-c2ccncc2)ccc1Cl [L779450] (first compound 0.1 µM, partner dose 0.2 µM)
The “cleaved PARP positive nuclei fraction” value of the first is lower: 87.8% for the first, 121% for the second.

First: Nc1ccn([C@@H]2O[C@H](CO)[C@@H](O)C2(F)F)c(=O)n1 [gemcitabine] + CCN(CC)CCCCNc1ncc2cc(-c3cc(OC)cc(OC)c3)c(NC(=O)NC(C)(C)C)nc2n1 [PD173074] (first compound 0.0004 µM, partner dose 0.1 µM)
Second: Nc1ncn([C@H]2C[C@H](O)[C@@H](CO)O2)c(=O)n1 [decitabine] + O=C1NC(=O)/C(=C/c2ccc(-c3ccc(F)cc3O)o2)S1 [AS252424] (first compound 0.1 µM, partner dose 1 µM)
The “cleaved PARP positive nuclei fraction” value of the first is lower: 47.1% for the first, 102% for the second.

First: CCCS(=O)(=O)Nc1ccc(F)c(C(=O)c2c[nH]c3ncc(Cl)cc23)c1F + COc1ccc(COc2ccc(Cc3cnc(N)nc3N)cc2OC)cc1 [GW2580] (first compound 0.08 µM, partner dose 1 µM)
Second: CNC(=O)c1cc(Oc2ccc(NC(=O)Nc3ccc(Cl)c(C(F)(F)F)c3)cc2)ccn1 [sorafenib] + Cc1cc([N+](=O)[O-])ccc1NS(=O)(=O)c1cc(Cl)ccc1Cl [FH535] (first compound 0.4 µM, partner dose 1 µM)
The “cleaved PARP positive nuclei fraction” value of the first is higher: 181% for the first, 152% for the second.

Compared with `Nc1ccn([C@@H]2O[C@H](CO)[C@@H](O)C2(F)F)c(=O)n1` [gemcitabine] + CCc1ccc(CCOc2ccc(CC3SC(=O)NC3=O)cc2)nc1 [pioglitazone] (first compound 0.0004 µM, partner dose 2 µM), `Nc1ncn([C@H]2C[C@H](O)[C@@H](CO)O2)c(=O)n1` [decitabine] + COc1ccc(-c2ccc3c(N4CCOCC4)nc(N4C[C@@H](C)O[C@@H](C)C4)nc3n2)cc1CO [KU0063794] (first compound 0.1 µM, partner dose 0.02 µM) is higher in “cleaved PARP positive nuclei fraction” value: 84.2% for the first, 210% for the second.

Compared with `O=C(O)c1ccc2c(c1)nc(Nc1cccc(Cl)c1)c1ccncc12` + N#Cc1c(O)c2c(-c3ccc(-c4ccccc4O)cc3)csc2[nH]c1=O [A769662] (first compound 0.4 µM, partner dose 2 µM), `Cn1c(=O)n(-c2ccc(C(C)(C)C#N)cc2)c2c3cc(-c4cnc5ccccc5c4)ccc3ncc21` + COc1cc2ncnc(Nc3ccc(Oc4ccccc4)cc3)c2cc1OC [SrcI1] (first compound 0.004 µM, partner dose 2 µM) is lower in “cleaved PARP positive nuclei fraction” value: 183% for the first, 114% for the second.

First: Nc1ccn([C@@H]2O[C@H](CO)[C@@H](O)C2(F)F)c(=O)n1 [gemcitabine] + COc1ccc(COc2ccc(Cc3cnc(N)nc3N)cc2OC)cc1 [GW2580] (first compound 0.0004 µM, partner dose 1 µM)
Second: Nc1nc(F)nc2c1ncn2[C@@H]1O[C@H](CO)[C@@H](O)[C@@H]1O [fludarabine] + COc1cc(N2CCC(N3CCN(C)CC3)CC2)ccc1Nc1ncc(Cl)c(Nc2ccccc2S(=O)(=O)C(C)C)n1 [NVP-TAE684] (first compound 0.2 µM, partner dose 0.08 µM)
The “cleaved PARP positive nuclei fraction” value of the first is higher: 112% for the first, 74.1% for the second.

Going from `CCCS(=O)(=O)Nc1ccc(F)c(C(=O)c2c[nH]c3ncc(Cl)cc23)c1F` + Cn1cc(/C=C2\C(=O)Nc3cccnc32)c2ccccc21 [GW441756] (first compound 0.08 µM, partner dose 0.4 µM) to `CN1CCN(c2ccc3nc(-c4c(N)c5c(F)cccc5[nH]c4=O)[nH]c3c2)CC1` [Dovitinib] + Oc1cc(-c2nc(-c3ccccc3)[nH]c2-c2ccncc2)ccc1Cl [L779450] (first compound 0.1 µM, partner dose 0.2 µM), the “cleaved PARP positive nuclei fraction” value falls from 130% to 89.4%.

Going from `Cc1cc(Nc2cc(N3CCN(C)CC3)nc(/C=C/c3ccccc3)n2)n[nH]1` + O=c1cc(-c2cccc3c2Sc2ccccc2S3)oc(N2CCOCC2)c1 [KU55933] (first compound 0.04 µM, partner dose 1 µM) to `Cn1c(=O)n(-c2ccc(C(C)(C)C#N)cc2)c2c3cc(-c4cnc5ccccc5c4)ccc3ncc21` + CC(C)CCN1c2nc(Nc3cc(F)c(O)c(F)c3)ncc2N(C)C(=O)C1C [BID1870] (first compound 0.004 µM, partner dose 0.2 µM), the “cleaved PARP positive nuclei fraction” value falls from 96.2% to 80.5%.

Going from `Cc1cc(Nc2cc(N3CCN(C)CC3)nc(/C=C/c3ccccc3)n2)n[nH]1` + O=S(=O)(c1ccccc1)N(CC(F)(F)F)c1ccc(C(O)(C(F)(F)F)C(F)(F)F)cc1 [T0901317] (first compound 0.04 µM, partner dose 1.4 µM) to `CCCS(=O)(=O)Nc1ccc(F)c(C(=O)c2c[nH]c3ncc(Cl)cc23)c1F` + O=C1NC(=O)/C(=C/c2ccc(-c3ccc(F)cc3O)o2)S1 [AS252424] (first compound 0.08 µM, partner dose 1 µM), the “cleaved PARP positive nuclei fraction” value rises from 80.7% to 147%.

For `CCCS(=O)(=O)Nc1ccc(F)c(C(=O)c2c[nH]c3ncc(Cl)cc23)c1F` + Oc1cc(-c2nc(-c3ccccc3)[nH]c2-c2ccncc2)ccc1Cl [L779450] (first compound 0.08 µM, partner dose 0.2 µM), the “cleaved PARP positive nuclei fraction” value was 226%.
